Reference: the supplement of paper PMC12823440, “Inhibitors supercharge kinase turnover through native proteolytic circuits” (Nature, 2025)
Structures can show the parent of a compound that is named as a salt. This is one part of the list. The calls rarely recur for the same compound in another form.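 Kinases were expressed as nanoluciferase fusions in K562 cells and luminescence was read every 4 h between 2 and 18 h as percent of control, DMSO set to 100% and a positive control to 0%. A time point counts as decreased when the signal drops significantly (2 sigma). The hit call is the authors' own, does not follow from the count of time points alone, and its rule is not shown.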

Chains of the proteins cited; added tags and fusions are not shown. Lines headed by an entry give the natural chain unless they say otherwise; changes in a name come on top.
UniProt Q9BRS2: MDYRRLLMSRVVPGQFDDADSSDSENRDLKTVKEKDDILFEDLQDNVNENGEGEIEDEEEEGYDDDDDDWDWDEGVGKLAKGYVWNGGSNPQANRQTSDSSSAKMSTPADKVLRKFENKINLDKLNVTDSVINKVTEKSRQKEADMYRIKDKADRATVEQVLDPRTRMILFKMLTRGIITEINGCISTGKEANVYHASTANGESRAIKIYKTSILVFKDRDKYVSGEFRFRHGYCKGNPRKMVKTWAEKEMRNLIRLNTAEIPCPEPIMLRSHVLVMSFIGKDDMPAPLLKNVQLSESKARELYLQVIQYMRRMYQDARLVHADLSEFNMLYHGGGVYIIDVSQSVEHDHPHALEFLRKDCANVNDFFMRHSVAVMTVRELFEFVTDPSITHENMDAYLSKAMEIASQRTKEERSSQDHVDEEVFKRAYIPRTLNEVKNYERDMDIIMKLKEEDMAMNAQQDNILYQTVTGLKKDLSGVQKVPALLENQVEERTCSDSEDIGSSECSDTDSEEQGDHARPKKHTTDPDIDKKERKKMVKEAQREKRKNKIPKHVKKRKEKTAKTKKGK
UniProt Q13546: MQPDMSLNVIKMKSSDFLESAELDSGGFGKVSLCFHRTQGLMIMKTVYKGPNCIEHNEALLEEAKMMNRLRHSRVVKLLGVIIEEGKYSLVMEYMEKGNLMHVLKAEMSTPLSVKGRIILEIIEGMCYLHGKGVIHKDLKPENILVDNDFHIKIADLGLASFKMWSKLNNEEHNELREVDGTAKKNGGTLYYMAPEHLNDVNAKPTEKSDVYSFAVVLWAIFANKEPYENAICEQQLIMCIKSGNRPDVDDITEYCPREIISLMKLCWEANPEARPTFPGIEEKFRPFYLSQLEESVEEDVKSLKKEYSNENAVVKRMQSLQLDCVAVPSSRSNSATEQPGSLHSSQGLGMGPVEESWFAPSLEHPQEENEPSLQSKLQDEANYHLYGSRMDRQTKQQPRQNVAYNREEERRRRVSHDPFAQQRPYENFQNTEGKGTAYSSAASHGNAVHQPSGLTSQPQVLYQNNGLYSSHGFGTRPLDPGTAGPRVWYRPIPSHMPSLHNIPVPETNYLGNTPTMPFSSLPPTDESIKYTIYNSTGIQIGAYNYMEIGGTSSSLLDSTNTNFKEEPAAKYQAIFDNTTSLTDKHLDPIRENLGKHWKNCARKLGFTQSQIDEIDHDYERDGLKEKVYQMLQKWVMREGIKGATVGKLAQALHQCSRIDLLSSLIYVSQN
UniProt Q15418, whole entry: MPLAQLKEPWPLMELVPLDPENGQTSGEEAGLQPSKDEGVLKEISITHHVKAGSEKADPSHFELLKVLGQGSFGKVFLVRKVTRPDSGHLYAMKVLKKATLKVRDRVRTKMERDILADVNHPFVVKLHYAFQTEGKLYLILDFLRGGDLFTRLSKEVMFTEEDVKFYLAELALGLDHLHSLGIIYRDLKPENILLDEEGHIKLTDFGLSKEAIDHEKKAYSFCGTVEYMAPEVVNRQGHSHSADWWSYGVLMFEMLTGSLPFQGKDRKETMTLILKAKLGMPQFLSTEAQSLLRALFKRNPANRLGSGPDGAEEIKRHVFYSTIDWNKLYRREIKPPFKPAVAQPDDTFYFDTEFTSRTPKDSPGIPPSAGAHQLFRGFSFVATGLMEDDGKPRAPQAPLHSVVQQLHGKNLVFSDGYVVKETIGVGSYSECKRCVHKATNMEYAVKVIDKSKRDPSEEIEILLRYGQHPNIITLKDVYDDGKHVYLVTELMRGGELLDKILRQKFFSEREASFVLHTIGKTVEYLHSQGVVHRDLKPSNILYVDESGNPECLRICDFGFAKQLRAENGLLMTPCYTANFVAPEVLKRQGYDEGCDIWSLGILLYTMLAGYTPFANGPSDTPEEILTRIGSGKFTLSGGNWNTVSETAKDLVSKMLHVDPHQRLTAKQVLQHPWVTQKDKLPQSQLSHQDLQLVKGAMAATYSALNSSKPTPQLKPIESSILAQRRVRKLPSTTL
UniProt Q9NYA1, whole entry: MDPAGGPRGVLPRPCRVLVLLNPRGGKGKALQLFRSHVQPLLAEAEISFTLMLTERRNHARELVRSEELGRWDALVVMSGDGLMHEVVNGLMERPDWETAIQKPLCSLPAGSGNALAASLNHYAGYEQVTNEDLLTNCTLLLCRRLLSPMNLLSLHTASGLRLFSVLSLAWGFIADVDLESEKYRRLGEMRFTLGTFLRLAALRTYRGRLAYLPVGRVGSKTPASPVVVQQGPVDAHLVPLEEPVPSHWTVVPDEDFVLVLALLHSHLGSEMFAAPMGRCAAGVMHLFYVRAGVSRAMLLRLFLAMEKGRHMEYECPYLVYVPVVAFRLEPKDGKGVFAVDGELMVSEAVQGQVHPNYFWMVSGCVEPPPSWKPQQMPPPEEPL
UniProt Q9Y6E0: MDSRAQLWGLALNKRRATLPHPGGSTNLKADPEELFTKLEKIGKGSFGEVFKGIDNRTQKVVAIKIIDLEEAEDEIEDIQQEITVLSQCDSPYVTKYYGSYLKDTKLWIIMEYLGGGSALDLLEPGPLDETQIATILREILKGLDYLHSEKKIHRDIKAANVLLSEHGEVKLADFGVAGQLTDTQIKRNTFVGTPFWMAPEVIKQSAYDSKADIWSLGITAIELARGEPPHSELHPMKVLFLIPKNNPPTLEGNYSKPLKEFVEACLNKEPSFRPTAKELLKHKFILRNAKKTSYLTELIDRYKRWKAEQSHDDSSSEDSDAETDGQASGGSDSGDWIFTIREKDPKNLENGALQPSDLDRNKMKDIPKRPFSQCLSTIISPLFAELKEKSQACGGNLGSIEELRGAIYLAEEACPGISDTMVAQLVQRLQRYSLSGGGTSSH
UniProt P42680: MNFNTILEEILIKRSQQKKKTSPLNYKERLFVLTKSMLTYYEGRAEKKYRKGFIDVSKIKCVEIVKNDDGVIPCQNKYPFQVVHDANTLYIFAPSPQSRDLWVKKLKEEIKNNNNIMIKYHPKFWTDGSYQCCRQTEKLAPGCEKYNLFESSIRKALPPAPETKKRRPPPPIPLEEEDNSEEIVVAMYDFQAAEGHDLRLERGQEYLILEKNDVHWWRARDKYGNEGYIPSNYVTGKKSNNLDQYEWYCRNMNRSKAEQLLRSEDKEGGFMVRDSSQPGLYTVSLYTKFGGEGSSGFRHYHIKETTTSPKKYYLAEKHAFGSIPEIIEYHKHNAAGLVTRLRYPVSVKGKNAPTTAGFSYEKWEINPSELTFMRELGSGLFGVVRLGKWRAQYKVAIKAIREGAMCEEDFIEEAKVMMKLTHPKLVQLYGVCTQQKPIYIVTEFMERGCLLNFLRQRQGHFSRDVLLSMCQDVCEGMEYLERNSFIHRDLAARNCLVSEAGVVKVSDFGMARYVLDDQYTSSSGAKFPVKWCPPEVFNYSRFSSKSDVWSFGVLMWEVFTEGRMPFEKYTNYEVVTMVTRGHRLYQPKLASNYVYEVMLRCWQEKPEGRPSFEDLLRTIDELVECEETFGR
UniProt P29597: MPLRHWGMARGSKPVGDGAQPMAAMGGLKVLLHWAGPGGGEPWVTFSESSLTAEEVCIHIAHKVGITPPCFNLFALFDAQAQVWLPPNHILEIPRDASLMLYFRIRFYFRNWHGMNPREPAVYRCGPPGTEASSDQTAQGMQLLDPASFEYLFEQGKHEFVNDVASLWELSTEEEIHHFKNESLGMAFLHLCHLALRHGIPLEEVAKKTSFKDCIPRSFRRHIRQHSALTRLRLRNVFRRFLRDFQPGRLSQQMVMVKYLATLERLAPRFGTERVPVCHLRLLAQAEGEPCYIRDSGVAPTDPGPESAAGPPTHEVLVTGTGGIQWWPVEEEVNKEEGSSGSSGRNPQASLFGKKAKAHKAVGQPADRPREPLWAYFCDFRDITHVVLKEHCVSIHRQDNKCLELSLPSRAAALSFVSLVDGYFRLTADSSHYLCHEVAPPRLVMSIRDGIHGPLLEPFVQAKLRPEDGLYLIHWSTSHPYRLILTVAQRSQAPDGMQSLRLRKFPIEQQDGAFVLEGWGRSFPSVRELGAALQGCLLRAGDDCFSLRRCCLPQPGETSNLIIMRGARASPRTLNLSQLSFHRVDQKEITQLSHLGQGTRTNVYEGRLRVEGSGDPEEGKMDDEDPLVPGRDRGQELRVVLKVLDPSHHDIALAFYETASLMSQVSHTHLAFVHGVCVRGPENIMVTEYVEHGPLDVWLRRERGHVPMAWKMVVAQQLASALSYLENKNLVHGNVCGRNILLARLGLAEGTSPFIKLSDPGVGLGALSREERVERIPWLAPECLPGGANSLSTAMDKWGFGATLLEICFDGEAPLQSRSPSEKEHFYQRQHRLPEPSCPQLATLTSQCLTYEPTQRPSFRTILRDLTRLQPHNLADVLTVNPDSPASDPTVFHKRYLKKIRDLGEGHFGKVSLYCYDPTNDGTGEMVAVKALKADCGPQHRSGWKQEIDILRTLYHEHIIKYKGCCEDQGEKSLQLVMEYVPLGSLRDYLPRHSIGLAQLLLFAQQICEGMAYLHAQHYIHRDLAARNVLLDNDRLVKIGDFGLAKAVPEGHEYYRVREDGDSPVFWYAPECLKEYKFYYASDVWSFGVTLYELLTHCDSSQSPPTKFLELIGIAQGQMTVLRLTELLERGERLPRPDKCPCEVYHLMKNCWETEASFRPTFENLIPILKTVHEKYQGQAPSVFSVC
UniProt Q6PHR2: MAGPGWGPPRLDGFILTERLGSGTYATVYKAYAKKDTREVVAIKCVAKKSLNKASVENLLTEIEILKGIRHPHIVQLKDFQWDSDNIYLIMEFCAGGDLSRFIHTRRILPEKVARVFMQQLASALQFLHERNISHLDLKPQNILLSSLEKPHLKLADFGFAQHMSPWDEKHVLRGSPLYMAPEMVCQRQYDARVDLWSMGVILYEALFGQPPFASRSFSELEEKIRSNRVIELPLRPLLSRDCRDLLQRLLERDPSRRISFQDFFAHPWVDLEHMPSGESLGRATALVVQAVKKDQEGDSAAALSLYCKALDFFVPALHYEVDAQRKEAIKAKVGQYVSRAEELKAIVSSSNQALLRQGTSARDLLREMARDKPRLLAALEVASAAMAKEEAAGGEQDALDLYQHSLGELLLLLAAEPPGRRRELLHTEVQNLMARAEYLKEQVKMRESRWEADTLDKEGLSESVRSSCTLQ
UniProt P07947, whole entry, looked up: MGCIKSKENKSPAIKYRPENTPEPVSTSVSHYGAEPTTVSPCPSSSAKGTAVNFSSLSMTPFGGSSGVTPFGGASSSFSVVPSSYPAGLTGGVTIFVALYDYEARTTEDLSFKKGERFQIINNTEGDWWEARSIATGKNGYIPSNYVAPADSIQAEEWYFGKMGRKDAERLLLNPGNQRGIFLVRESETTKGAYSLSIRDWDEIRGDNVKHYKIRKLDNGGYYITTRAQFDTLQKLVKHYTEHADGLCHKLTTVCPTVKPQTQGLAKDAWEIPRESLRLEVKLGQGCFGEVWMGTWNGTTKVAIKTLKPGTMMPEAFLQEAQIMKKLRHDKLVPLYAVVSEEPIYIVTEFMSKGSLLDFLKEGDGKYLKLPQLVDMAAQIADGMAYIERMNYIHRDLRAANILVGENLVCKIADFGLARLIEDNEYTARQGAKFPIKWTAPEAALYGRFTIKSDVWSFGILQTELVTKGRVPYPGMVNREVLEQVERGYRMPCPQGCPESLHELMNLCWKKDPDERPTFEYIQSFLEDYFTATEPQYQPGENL
UniProt P43403: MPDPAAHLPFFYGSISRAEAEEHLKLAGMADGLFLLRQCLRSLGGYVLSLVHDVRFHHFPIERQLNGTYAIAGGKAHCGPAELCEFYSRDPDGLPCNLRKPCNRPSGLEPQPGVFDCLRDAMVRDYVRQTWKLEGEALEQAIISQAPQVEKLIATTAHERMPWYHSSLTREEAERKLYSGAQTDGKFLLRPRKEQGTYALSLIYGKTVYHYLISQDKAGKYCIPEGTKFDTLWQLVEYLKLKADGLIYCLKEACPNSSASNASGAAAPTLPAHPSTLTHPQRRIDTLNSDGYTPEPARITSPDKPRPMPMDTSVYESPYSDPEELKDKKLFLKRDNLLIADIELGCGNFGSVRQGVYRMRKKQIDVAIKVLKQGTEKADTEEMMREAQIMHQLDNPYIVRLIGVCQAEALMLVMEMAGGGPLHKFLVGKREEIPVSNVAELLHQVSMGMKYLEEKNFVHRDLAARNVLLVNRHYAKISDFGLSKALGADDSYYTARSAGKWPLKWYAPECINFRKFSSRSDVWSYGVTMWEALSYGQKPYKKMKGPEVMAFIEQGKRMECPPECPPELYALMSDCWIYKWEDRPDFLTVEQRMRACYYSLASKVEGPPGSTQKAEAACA

How the values were obtained:
Settings in all cases: K562; 2-18 h
RET = RET (UniProt P07949); assay: kinase-Nluc reporter destabilization hit call (1 = scored as downregulated) (binary); higher = compound decreases kinase abundance
[1] = target: RET_M918T (clone: RET_mut) (UniProt P07949); assay: as above
RIOK1 = RIOK1 (UniProt Q9BRS2); assay: as above
RIPK1 = RIPK1 (UniProt Q13546); assay: as above
RIPK2 = RIPK2 (UniProt O43353); assay: as above
ROR2 = ROR2 (UniProt Q01974); assay: as above
RPS6KA1 = RPS6KA1 (UniProt Q15418); assay: as above
SPHK1 = SPHK1 (UniProt Q9NYA1); assay: as above
SRC = SRC (UniProt P12931); assay: as above
STK24 = STK24 (UniProt Q9Y6E0); assay: as above
STK38 = STK38 (UniProt Q15208); assay: as above
SYK = SYK (UniProt P43405); assay: as above
TEC = TEC (UniProt P42680); assay: as above
TYK2 = TYK2 (UniProt P29597); assay: as above
ULK3 = ULK3 (UniProt Q6PHR2); assay: as above
YES1 = YES1 (UniProt P07947); assay: as above
ZAK = ZAK (UniProt Q9NYL2); assay: as above
ZAP70 = ZAP70 (UniProt P43403); assay: as above
ABL1 = ABL1 (UniProt P00519); assay: number of time points (of 5) at which kinase-Nluc abundance scored as decreased, DMSO-normalised (count); higher = more persistent destabilization
AKT1 = AKT1 (UniProt P31749); assay: as above

Compound | kinase-Nluc reporter destabilization hit call (RET) | kinase-Nluc reporter destabilization hit call [1] | kinase-Nluc reporter destabilization hit call (RIOK1) | kinase-Nluc reporter destabilization hit call (RIPK1) | kinase-Nluc reporter destabilization hit call (RIPK2) | kinase-Nluc reporter destabilization hit call (ROR2) | kinase-Nluc reporter destabilization hit call (RPS6KA1) | kinase-Nluc reporter destabilization hit call (SPHK1) | kinase-Nluc reporter destabilization hit call (SRC) | kinase-Nluc reporter destabilization hit call (STK24) | kinase-Nluc reporter destabilization hit call (STK38) | kinase-Nluc reporter destabilization hit call (SYK) | kinase-Nluc reporter destabilization hit call (TEC) | kinase-Nluc reporter destabilization hit call (TYK2) | kinase-Nluc reporter destabilization hit call (ULK3) | kinase-Nluc reporter destabilization hit call (YES1) | kinase-Nluc reporter destabilization hit call (ZAK) | kinase-Nluc reporter destabilization hit call (ZAP70) | number of time points (ABL1) | number of time points (AKT1)
C[C@]1(O)C[C@@](N)(c2ccc(-c3nc4n(c3-c3ccccc3)COc3ccncc3-4)cc2)C1 [TAS-117 (hydrochloride)] (10 µM) | inactive: 0 | inactive: 0 | inactive: 0 | inactive: 0 | inactive: 0 | inactive: 0 | inactive: 0 | inactive: 0 | inactive: 0 | inactive: 0 | inactive: 0 | inactive: 0 | inactive: 0 | inactive: 0 | inactive: 0 | inactive: 0 | inactive: 0 | inactive: 0 | 0 | 0
CC(=O)Nc1nc(C)c(-c2cc3c(c(S(C)(=O)=O)c2)C(=O)N([C@@H](C)C2CC2)C3)s1 (2.5 µM) | inactive: 0 | inactive: 0 | inactive: 0 | inactive: 0 | inactive: 0 | inactive: 0 | inactive: 0 | inactive: 0 | inactive: 0 | inactive: 0 | inactive: 0 | inactive: 0 | inactive: 0 | inactive: 0 | inactive: 0 | inactive: 0 | inactive: 0 | inactive: 0 | 0 | 0
CC(C)[C@H](CO)Nc1nc(Nc2ccc(C(=O)O)c(Cl)c2)c2ncn(C(C)C)c2n1 [Purvalanol B] (10 µM) | inactive: 0 | inactive: 0 | inactive: 0 | inactive: 0 | inactive: 0 | inactive: 0 | inactive: 0 | inactive: 0 | inactive: 0 | inactive: 0 | inactive: 0 | inactive: 0 | inactive: 0 | inactive: 0 | inactive: 0 | inactive: 0 | inactive: 0 | inactive: 0 | 0 | 0
CNC(=O)c1ccc(-c2cnc3ncc(Cc4ccc5ncccc5c4)n3n2)cc1F [Capmatinib] (10 µM) | inactive: 0 | inactive: 0 | inactive: 0 | inactive: 0 | inactive: 0 | inactive: 0 | inactive: 0 | inactive: 0 | inactive: 0 | inactive: 0 | inactive: 0 | inactive: 0 | inactive: 0 | inactive: 0 | inactive: 0 | inactive: 0 | inactive: 0 | inactive: 0 | 0 | 0
Cn1sc(=O)n(Cc2ccccc2)c1=O (10 µM) | inactive: 0 | inactive: 0 | inactive: 0 | inactive: 0 | inactive: 0 | inactive: 0 | inactive: 0 | inactive: 0 | inactive: 0 | inactive: 0 | inactive: 0 | inactive: 0 | inactive: 0 | inactive: 0 | inactive: 0 | inactive: 0 | inactive: 0 | inactive: 0 | 0 | 0
CNCCOc1ccccc1C(C)(C)Nc1nccn(-c2cc(C(=O)NC3CC3)ccc2C)c1=O [p38α inhibitor 2] (10 µM) | inactive: 0 | inactive: 0 | inactive: 0 | inactive: 0 | inactive: 0 | inactive: 0 | inactive: 0 | inactive: 0 | inactive: 0 | inactive: 0 | inactive: 0 | inactive: 0 | inactive: 0 | inactive: 0 | inactive: 0 | inactive: 0 | inactive: 0 | inactive: 0 | 0 | 0
O=c1cc(N2CCOCC2)oc2c1ccc1ccccc12 (2 µM) | inactive: 0 | inactive: 0 | inactive: 0 | inactive: 0 | inactive: 0 | inactive: 0 | inactive: 0 | inactive: 0 | inactive: 0 | inactive: 0 | inactive: 0 | inactive: 0 | inactive: 0 | inactive: 0 | inactive: 0 | inactive: 0 | inactive: 0 | inactive: 0 | 0 | 0
O=C1NC(=O)C(c2ccccc2[N+](=O)[O-])=C1Nc1ccc(O)c(Cl)c1 (10 µM) | inactive: 0 | inactive: 0 | inactive: 0 | inactive: 0 | inactive: 0 | inactive: 0 | inactive: 0 | inactive: 0 | inactive: 0 | inactive: 0 | inactive: 0 | inactive: 0 | inactive: 0 | inactive: 0 | inactive: 0 | inactive: 0 | inactive: 0 | inactive: 0 | 0 | 0
CC(=O)Nc1nc(C)c(-c2ccc(Cl)c(S(=O)(=O)NCCO)c2)s1 (10 µM) | inactive: 0 | inactive: 0 | inactive: 0 | inactive: 0 | inactive: 0 | inactive: 0 | inactive: 0 | inactive: 0 | inactive: 0 | inactive: 0 | inactive: 0 | inactive: 0 | inactive: 0 | inactive: 0 | inactive: 0 | inactive: 0 | inactive: 0 | inactive: 0 | 0 | 0
O=C(Nc1nccs1)C(c1cc(F)ccc1O)N1Cc2ccc(-c3ccc(N4CCNCC4)cc3)cc2C1=O (racemic) (10 µM) | inactive: 0 | inactive: 0 | inactive: 0 | inactive: 0 | inactive: 0 | inactive: 0 | inactive: 0 | inactive: 0 | inactive: 0 | inactive: 0 | inactive: 0 | inactive: 0 | inactive: 0 | inactive: 0 | inactive: 0 | inactive: 0 | inactive: 0 | inactive: 0 | 4 | 0
COC(=O)c1cc2c(OC(C)C)cc(OC(C)C)cc2[nH]1 (2.5 µM) | inactive: 0 | inactive: 0 | inactive: 0 | inactive: 0 | inactive: 0 | inactive: 0 | inactive: 0 | inactive: 0 | inactive: 0 | inactive: 0 | inactive: 0 | inactive: 0 | inactive: 0 | inactive: 0 | inactive: 0 | inactive: 0 | inactive: 0 | inactive: 0 | 0 | 0
COC[C@H]1Cn2cc(-c3nc(Nc4ccnn4C)ncc3C)nc2C(=O)N1Cc1ccc(F)c(F)c1 (10 µM) | inactive: 0 | inactive: 0 | inactive: 0 | inactive: 0 | inactive: 0 | inactive: 0 | inactive: 0 | inactive: 0 | inactive: 0 | inactive: 0 | inactive: 0 | inactive: 0 | inactive: 0 | inactive: 0 | inactive: 0 | inactive: 0 | inactive: 0 | inactive: 0 | 0 | 0
Cc1nc(Nc2ncc(C(=O)Nc3c(C)cccc3Cl)s2)cc(N2CCN(C(=O)CCCCCCC(=O)N[C@H](C(=O)N3C[C@H](O)C[C@H]3C(=O)NCc3ccc(-c4scnc4C)cc3)C(C)(C)C)CC2)n1 (2.5 µM) | inactive: 0 | inactive: 0 | inactive: 0 | inactive: 0 | inactive: 0 | inactive: 0 | inactive: 0 | inactive: 0 | inactive: 0 | inactive: 0 | inactive: 0 | inactive: 0 | inactive: 0 | inactive: 0 | inactive: 0 | inactive: 0 | inactive: 0 | inactive: 0 | 3 | 0
CC[C@H](C)[C@H](NC(=O)[C@H](CCCCN)NC(=O)[C@H](CC(C)C)NC(=O)[C@@H]1CCCN1C(=O)[C@H](CCC(=O)O)NC(=O)[C@H](Cc1ccc(O)cc1)NC(=O)[C@@H](NC(=O)[C@H](CO)NC(=O)CNC(=O)[C@H](CO)NC(=O)[C@H](CCCN=C(N)N)NC(=O)[C@H](CCCCN)NC(=O)[C@@H](NC(=O)[C@@H](N)CCCN=C(N)N)[C@@H](C)O)C(C)C)C(=O)O [Malantide] (10 µM) | inactive: 0 | inactive: 0 | inactive: 0 | inactive: 0 | inactive: 0 | inactive: 0 | inactive: 0 | inactive: 0 | inactive: 0 | inactive: 0 | inactive: 0 | inactive: 0 | inactive: 0 | inactive: 0 | inactive: 0 | inactive: 0 | inactive: 0 | inactive: 0 | 0 | 0
C=CC(=O)N[C@H]1CCOC[C@H]1Nc1ncc2cc(-c3c(Cl)c(OC)cc(OC)c3Cl)ccc2n1 [Fisogatinib] (10 µM) | inactive: 0 | inactive: 0 | inactive: 0 | inactive: 0 | inactive: 0 | inactive: 0 | inactive: 0 | inactive: 0 | inactive: 0 | inactive: 0 | inactive: 0 | inactive: 0 | inactive: 0 | inactive: 0 | inactive: 0 | inactive: 0 | inactive: 0 | inactive: 0 | 0 | 0
COc1cccc2cc(-c3nc([C@H]4CC[C@H](C(=O)O)CC4)n4ncnc(N)c34)[nH]c12 (2.5 µM) | inactive: 0 | inactive: 0 | inactive: 0 | inactive: 0 | inactive: 0 | inactive: 0 | inactive: 0 | inactive: 0 | inactive: 0 | inactive: 0 | inactive: 0 | inactive: 0 | inactive: 0 | inactive: 0 | inactive: 0 | inactive: 0 | inactive: 0 | inactive: 0 | 4 | 0

Record cards, as listed above. Values in the order: kinase-Nluc reporter destabilization hit call (RET)	kinase-Nluc reporter destabilization hit call [1]	kinase-Nluc reporter destabilization hit call (RIOK1)	kinase-Nluc reporter destabilization hit call (RIPK1)	kinase-Nluc reporter destabilization hit call (RIPK2)	kinase-Nluc reporter destabilization hit call (ROR2)	kinase-Nluc reporter destabilization hit call (RPS6KA1)	kinase-Nluc reporter destabilization hit call (SPHK1)	kinase-Nluc reporter destabilization hit call (SRC)	kinase-Nluc reporter destabilization hit call (STK24)	kinase-Nluc reporter destabilization hit call (STK38)	kinase-Nluc reporter destabilization hit call (SYK)	kinase-Nluc reporter destabilization hit call (TEC)	kinase-Nluc reporter destabilization hit call (TYK2)	kinase-Nluc reporter destabilization hit call (ULK3)	kinase-Nluc reporter destabilization hit call (YES1)	kinase-Nluc reporter destabilization hit call (ZAK)	kinase-Nluc reporter destabilization hit call (ZAP70)	number of time points (ABL1)	number of time points (AKT1)
CC[C@H](C)[C@H](NC(=O)[C@H](CCCCN)NC(=O)[C@H](CC(C)C)NC(=O)[C@@H]1CCCN1C(=O)[C@H](CCC(=O)O)NC(=O)[C@H](Cc1ccc(O)cc1)NC(=O)[C@@H](NC(=O)[C@H](CO)NC(=O)CNC(=O)[C@H](CO)NC(=O)[C@H](CCCN=C(N)N)NC(=O)[C@H](CCCCN)NC(=O)[C@@H](NC(=O)[C@@H](N)CCCN=C(N)N)[C@@H](C)O)C(C)C)C(=O)O [Malantide] (10 µM) is listed with inactive: 0	inactive: 0	inactive: 0	inactive: 0	inactive: 0	inactive: 0	inactive: 0	inactive: 0	inactive: 0	inactive: 0	inactive: 0	inactive: 0	inactive: 0	inactive: 0	inactive: 0	inactive: 0	inactive: 0	inactive: 0	0	0
CNCCOc1ccccc1C(C)(C)Nc1nccn(-c2cc(C(=O)NC3CC3)ccc2C)c1=O [p38α inhibitor 2] (10 µM) is listed with inactive: 0	inactive: 0	inactive: 0	inactive: 0	inactive: 0	inactive: 0	inactive: 0	inactive: 0	inactive: 0	inactive: 0	inactive: 0	inactive: 0	inactive: 0	inactive: 0	inactive: 0	inactive: 0	inactive: 0	inactive: 0	0	0
